The values below come from the supplement of paper PMC5949888.

Most values lie at the floor of the assay. Slopes are relative: functional sequences can read slightly below zero.

This data set has as its system Saccharomyces cerevisiae PS128 hsf1 delta, HSF1(1-493) fusion. Nature of the data set: growth estimate (transactivation domain function in HSF1 fusion, heat-shock survival) (a.u. (slope of normalised read count over time)); higher = stronger growth at 37°C, i.e. more transactivation activity. The following applies: library: random library.
For IGTESFANGG, the growth estimate is -0.246.

For PGVVQGGCISYGMRS, the growth estimate was under -0.25.

On to TCEQPGIRCRQFRIVGPHWA, for which the growth estimate was under -0.25.

As for GHWAW, the growth estimate is under -0.25.

With SKRTCL, the growth estimate is under -0.25.

As to VKVLISFIVWDPGSRR, the growth estimate was under -0.25.

In the case of SLKVSVIYTYSDDFNASLRN, the growth estimate is under -0.25.

LQSPTIRVDYALFRGGTLPT: the growth estimate is under -0.25.

In the case of SSTNRRNRGAKPLTS, the growth estimate was under -0.25.

Take CSKRMRLQIT: the growth estimate was under -0.25.

As for SQLYQQRPNLRCTCRVWAPG, the growth estimate is under -0.25.

For KVGATWSRQS, the growth estimate is under -0.25.

As for RVRE, the growth estimate is under -0.25.

As for SPPTLPKSRVPPD, the growth estimate is under -0.25.

FLMPEDLV: the growth estimate is under -0.25.

For the substance VLKSVSLSSYCGVPPWNTGG, the growth estimate is under -0.25.

ITTIVRISEARSNIFIAFLF: the growth estimate was under -0.25.

Consider KHVSASTASVRK, for which the growth estimate is under -0.25.

On to RGCTTQGPM, for which the growth estimate is under -0.25.

With TPWNCIRRTPRSCDQRLGFG, the growth estimate is under -0.25.

In the case of KSGT, the growth estimate was under -0.25.

As to LEVLPRVSSKDRESSYTGA, the growth estimate was under -0.25.

Take YQNYSVVGISPGVISMAFH: the growth estimate is under -0.25.

Regarding YIIARCCMVTRRRKIEYYEL, the growth estimate is under -0.25.

As to SKCV, the growth estimate was -0.244.

On to PCTFAGLYGGIRKRSGAEVA, for which the growth estimate is under -0.25.

As to CEA, the growth estimate was under -0.25.

Take RWTRGREVLSVLECRCSCRR: the growth estimate is under -0.25.

As to VKSVESLG, the growth estimate was under -0.25.

SMVSTV: the growth estimate is under -0.25.

As for GSRKQSETQSTWARLLERLC, the growth estimate is under -0.25.

Turning to EDAINAGTRVFSAVQTHSRR, the growth estimate was under -0.25.

As to RGTLKVNARVSVPSIQISNG, the growth estimate was -0.243.

For the substance RRPMR, the growth estimate is under -0.25.

As for RVKWSGARLKYADADMCAVR, the growth estimate was under -0.25.

As for LYPGYGHVIR, the growth estimate is under -0.25.

For the substance RLPLRWSPSQGSRISYCGAY, the growth estimate is under -0.25.

As for FHMAARACLLQTVAVSEH, the growth estimate was under -0.25.

For GPSSTPPAEARVMTH, the growth estimate is under -0.25.

EHTKTVGHGLWTPLRRLRNC: the growth estimate is under -0.25.

On to YPVVIKERSGP, for which the growth estimate is under -0.25.

For RHGRKSPRWKN, the growth estimate is under -0.25.

Regarding LVGRMNNSRTEAKMYGHEGR, the growth estimate was under -0.25.

As to QNSGTCPESLTGAQARAVLA, the growth estimate was under -0.25.

As for PGVIGSAQ, the growth estimate is under -0.25.

For the substance LGYKI, the growth estimate is under -0.25.

As for IPG, the growth estimate was under -0.25.

As to FGFELQKTCRQILVHMTETS, the growth estimate is under -0.25.

As to NSETRALLVLGVGA, the growth estimate was under -0.25.

As for HRRFCMSDNLFECPPFQSMG, the growth estimate is under -0.25.

In the case of TSYRADM, the growth estimate was under -0.25.

Turning to CYLFYMHT, the growth estimate is under -0.25.

On to FLLITLTSGFSVGMQVSHW, for which the growth estimate was under -0.25.

Consider TIMYGYPIVLFYSLRERS, for which the growth estimate was under -0.25.

As for SVLPALTNRRSERGRLQS, the growth estimate was -0.245.

On to ANHSSAGGDRGSAFMGTVHD, for which the growth estimate was under -0.25.

In the case of VRVDLLKYTYIHVVTGVT, the growth estimate was under -0.25.

In the case of ALNLKKREGVFQQDVIKSFD, the growth estimate is under -0.25.

With VQAVG, the growth estimate is under -0.25.

Turning to IWYY, the growth estimate is under -0.25.

YLGGRPNRADQDQL: the growth estimate is under -0.25.

For PQSTCC, the growth estimate was under -0.25.

Consider TVWSCGQEPGLILAWDC, for which the growth estimate was -0.141.

Regarding LLGGTLSAA, the growth estimate was under -0.25.

Regarding LPELQRVKIIGGVAHICVPS, the growth estimate was under -0.25.

Consider TGRICHNVHSKHTEINNLIS, for which the growth estimate was under -0.25.

For the substance PMVTRRLEDKRNRCLIPMSI, the growth estimate is under -0.25.

Turning to SAIGSHRMSGVTH, the growth estimate is under -0.25.

For LGILGRGSSVPMWHLEGYSR, the growth estimate was under -0.25.

On to PHCSIVSECQLEVRNQSITF, for which the growth estimate is under -0.25.

PGTIHIAKS: the growth estimate was under -0.25.

Turning to SISTSVRDGAIATPRSVVSM, the growth estimate is under -0.25.

Regarding NQIFSYLATPHCWTFGGPSA, the growth estimate was under -0.25.

ELVHFPRLITA: the growth estimate was under -0.25.

Regarding TGGRLCCARRFFGPGAFWAM, the growth estimate is under -0.25.

With RLLLALLLAH, the growth estimate is under -0.25.

NSVRRRKVHGDDWVSTLQLG: the growth estimate is under -0.25.

As to WDHRMEQPSFSSASLVGQPF, the growth estimate was under -0.25.

For AACEL, the growth estimate was under -0.25.

Take ESVAKHCQLHSPTADTG: the growth estimate is under -0.25.

In the case of DKNEIAWVGSRRQIDTPMH, the growth estimate is under -0.25.

Turning to VRWIGLRPVISRPESLA, the growth estimate was under -0.25.

As to PMNRF, the growth estimate is under -0.25.

Consider LCPDGTVLHNIAPTLEGRPA, for which the growth estimate is under -0.25.

For the substance TGAVPLELVLWIPWVSV, the growth estimate was under -0.25.

Consider LKSPFSILSVVKSAWSCVSA, for which the growth estimate was under -0.25.

Turning to LNDLYASRHIRSA, the growth estimate is under -0.25.

Regarding PPE, the growth estimate is under -0.25.

DDLTASPRNIECLVRHQSNL: the growth estimate was under -0.25.

Regarding VVVF, the growth estimate is under -0.25.

On to LRAAVGIARVEPACPPVVSW, for which the growth estimate is under -0.25.

On to VRLSGRHRHLCH, for which the growth estimate was under -0.25.

Turning to GPGQYPTF, the growth estimate is under -0.25.

Regarding SRMRHGKQCRVL, the growth estimate is under -0.25.

On to KDAILCRRQSWSGLAPSYTV, for which the growth estimate is under -0.25.

As to SEFRL, the growth estimate was under -0.25.

For YPDRFNC, the growth estimate is under -0.25.

On to INAVGYSVRLSL, for which the growth estimate is under -0.25.

CHVRAQFAHPFGQGD: the growth estimate is under -0.25.

As to STWGTAATDVP, the growth estimate is under -0.25.

For MEAKKIIR, the growth estimate was under -0.25.

Consider PLIMVSSVGRFVEAFVDTTS, for which the growth estimate is -0.229.

As to FLARTRRGLPRWPGSEEVKL, the growth estimate was under -0.25.

As to CLPRVAWLSNTFLRSKTPCR, the growth estimate was under -0.25.

RHHTGLCTCVFRHFRATGLT: the growth estimate was under -0.25.

For the substance HECDLVFTVRYCIRYTRLAA, the growth estimate is under -0.25.

As to DPYREWHGRTV, the growth estimate was under -0.25.

Regarding RVQVISRELVNRQAILPAVH, the growth estimate was under -0.25.

Turning to TVQVCPTMGTGLSEQVLRGR, the growth estimate is under -0.25.

Turning to ESVWHCGAA, the growth estimate was under -0.25.

Take FDGGHTTPNG: the growth estimate is under -0.25.

LRQNTAKSTPRN: the growth estimate was under -0.25.

With MLKQGN, the growth estimate was under -0.25.

With PNGCAEYAFAPDMGW, the growth estimate was -0.0349.

For the substance RYLRGSP, the growth estimate is under -0.25.

Consider ANINGRRHLILRCGSDGCLV, for which the growth estimate is under -0.25.
